Experimental data: paper PMC6160458
No constants are given. Whether binding was seen depends on the method and setting. Binding seen in cells or lysates may run through a third protein. Here binding means that the protein was enriched with, or labelled near, the bait; the list need not be complete. A no says only that the protein was not detected with the bait.

Protein sequences, listed by entry. Tags and fused reporters are not part of them.
UniProt Q22799: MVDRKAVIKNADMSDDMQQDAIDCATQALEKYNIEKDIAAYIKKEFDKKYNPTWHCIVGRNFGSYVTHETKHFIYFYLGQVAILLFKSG
UniProt Q21215: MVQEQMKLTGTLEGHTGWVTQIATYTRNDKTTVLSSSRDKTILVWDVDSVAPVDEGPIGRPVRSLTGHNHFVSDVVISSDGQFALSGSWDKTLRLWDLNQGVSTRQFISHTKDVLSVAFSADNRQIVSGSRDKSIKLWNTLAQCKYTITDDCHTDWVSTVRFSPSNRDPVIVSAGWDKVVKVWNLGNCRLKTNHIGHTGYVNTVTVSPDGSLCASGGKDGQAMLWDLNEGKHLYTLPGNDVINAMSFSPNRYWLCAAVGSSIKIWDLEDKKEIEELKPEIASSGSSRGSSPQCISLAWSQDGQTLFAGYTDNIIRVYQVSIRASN

Molecular target: DLC-1::GFP (dynein light chain 1 fused to GFP) (C. elegans) (UniProt Q22799)
Experiment: affinity purification with mass spectrometry; pull-down of DLC-1::GFP repeated, bound proteins analyzed by mass spectrometry

Molecule	binding
CED-4 (Apaf1) (protein, UniProt P30429 1-549) MLCEIECRALSTAHTRLIHDFEPRDALTYLEGKNIFTEDHSELISKMSTRLERIANFLRIYRRQASELGPLIDFFNYNNQSHLADFLEDYIDFAINEPDLLRPVVIAPQFSRQMLDRKLLLGNVPKQMTCYIREYHVDRVIKKLDEMCDLDSFFLFLHGRAGSGKSVIASQALSKSDQLIGINYDSIVWLKDSGTAPKSTFDLFTDILLMLKSEDDLLNFPSVEHVTSVVLKRMICNALIDRPNTLFVFDDVVQEETIRWAQELRLRCLVTTRDVEISNAASQTCEFIEVTSLEIDECYDFLEAYGMPMPVGEKEEDVLNKTIELSSGNPATLMMFFKSCEPKTFEKMAQLNNKLESRGLVGVECITPYSYKSLAMALQRCVEVLSDEDRSALAFAVVMPPGVDIPVKLWSCVIPVDICSNEEEQLDDEVADRLKRLSKRGALLSGKRMPVLTFKIDHIIHMFLKHVVDAQTIANGISILEQRLLEIGNNNVSVPERHIPSHFQKFRRSSASEMYPKTTEETVIRPEDFPKFMQLHQKFYDSLKNFACC	no binding
DPF-2(C27C12.7) (protein, UniProt Q18253 1-829) MENDNYDVEEQGCSVFNGKHGYFARSCCVVFILIICVIFVFSVIFTFMQNPINLNSDNGFNQTSGNTSSLEATTLKPKFSSLMTTTRRFTFEQLFSGKQFLVDYYDYIWLPDGSFVQMNDDFTIRKQMKKIPLGSSVAEPFFNNGEYVKALSSNMKYAYGSKKVNELWRHSAEYLYHIVKINNKTVSTEQWHVGPEENSLIQAFYWNPNASSNDFVYVHNYNLYYQKDPEKPDGAIQLTVGGSTFNRFGLANWLYEEEILEASSAVWWSPSGRYVSYLRFDDREVNRIFLPKYTDDDSYVEYFELPYPKAGVQNNTLVTQYIWDSENHKIVETAPPNELSAANGDYYVLTNKWITMPRNGSDLGEERLVTVWANRDQNHVYFSLCNEQDCVMALSFQFSIDNRQLWVSPKDVRGVFPTETGFLTVLPHKHDDGNIYNHVAHVELDGTGTGKITKWIGENFDVILVLGYSSKIDALTFSAYGDGVGEFSTYIVREAMYSNKKTTLQKVTDQFEDCKTLGSQSADPTGQRIVVQCEKPFDNTRLYLVDVVDTTKKIMLEGGTKAVIPFDVPNMKFGKLKLPSGIDGHYMMLTPANLLDGAKIPLLLDIYGGPDSKQVFQKTPTAHAIQIVSQYDIAYARIDVRGTGGRGWDVKEAVYRKLGDAEVVDTLDMIRAFINTFGFIDEDRIAVMGWSYGGFLTSKIAIKDQGELVKCAISIAPVTDFKYYDSAYTERYLGQPAENLQGYINTNVIPHARNVTNVKYLLAHGERDDNVHYQNSARWSEALQQNGIHFTQLVYANEAHSLSHKLFHLYGEVQRFLMNDCFKSNLDLL	binds

Continued, values first:

binding	Molecule
binds	RACK-1(K04D7.1) (from UniProt Q21215 1-325)
binds	SAO-1(R10D12.14) (protein, UniProt C6KRN1 1-245) MHKNGNNGPVIDTKWHYLGPDSEKYGPYMSKDMLFWLQAGYFNDGLQLKTENEPNYHTLGEWSQLLGTHPFSMPVHSLDATIAQMNSMRPHGAMMMVPPGLQNQFQPPMPMRFPPFLPMPLLHQMNQNGPPMGAQMHSQPPSEPIDAGSLSHTPDSENETRLNEQTLQQPPSWLIALGLAGHGRKPHHHQQILAHQHIPQMQHANVATDQVVMKSVECQTEPVEISKEQASRVLSELLGQMVIIN
